Residue numbers refer to the chain shown, from its start. Tags and fusion partners may be left off the protein sequences shown.
Assays:
[1] = tested on: T1, Hermes transposase delta497-516 (Musca domestica); experiment: enzyme reaction in vitro; conditions: 5'-phosphate on SEQ 9 strand; dimeric mutant; more active than native enzyme at 23 and 30 C; Mg2+ or Mn2+; purified recombinant protein
T1 sequence: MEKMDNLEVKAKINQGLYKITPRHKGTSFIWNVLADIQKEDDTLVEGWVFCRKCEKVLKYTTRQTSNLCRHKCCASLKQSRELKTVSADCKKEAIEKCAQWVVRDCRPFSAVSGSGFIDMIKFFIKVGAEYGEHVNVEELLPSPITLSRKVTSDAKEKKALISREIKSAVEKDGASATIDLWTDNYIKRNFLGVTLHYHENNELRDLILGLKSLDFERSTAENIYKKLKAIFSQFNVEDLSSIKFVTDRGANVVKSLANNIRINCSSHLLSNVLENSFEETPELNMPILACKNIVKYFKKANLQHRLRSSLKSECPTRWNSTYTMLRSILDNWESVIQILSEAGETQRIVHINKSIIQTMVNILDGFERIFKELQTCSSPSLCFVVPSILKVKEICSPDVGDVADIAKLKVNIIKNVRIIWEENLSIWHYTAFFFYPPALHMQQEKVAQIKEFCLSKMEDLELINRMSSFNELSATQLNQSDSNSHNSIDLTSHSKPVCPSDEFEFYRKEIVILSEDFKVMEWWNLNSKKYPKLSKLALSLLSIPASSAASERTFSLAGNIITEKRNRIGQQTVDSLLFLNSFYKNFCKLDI

[2] = tested on: T2, Hermes transposase triple mutant (Musca domestica); experiment: enzyme reaction in vitro; conditions: 5'-phosphate on SEQ 9 strand; dimeric mutant; efficient strand transfer and fragmentation; Mg2+ or Mn2+; 23 or 30 C; purified recombinant protein
T2 sequence: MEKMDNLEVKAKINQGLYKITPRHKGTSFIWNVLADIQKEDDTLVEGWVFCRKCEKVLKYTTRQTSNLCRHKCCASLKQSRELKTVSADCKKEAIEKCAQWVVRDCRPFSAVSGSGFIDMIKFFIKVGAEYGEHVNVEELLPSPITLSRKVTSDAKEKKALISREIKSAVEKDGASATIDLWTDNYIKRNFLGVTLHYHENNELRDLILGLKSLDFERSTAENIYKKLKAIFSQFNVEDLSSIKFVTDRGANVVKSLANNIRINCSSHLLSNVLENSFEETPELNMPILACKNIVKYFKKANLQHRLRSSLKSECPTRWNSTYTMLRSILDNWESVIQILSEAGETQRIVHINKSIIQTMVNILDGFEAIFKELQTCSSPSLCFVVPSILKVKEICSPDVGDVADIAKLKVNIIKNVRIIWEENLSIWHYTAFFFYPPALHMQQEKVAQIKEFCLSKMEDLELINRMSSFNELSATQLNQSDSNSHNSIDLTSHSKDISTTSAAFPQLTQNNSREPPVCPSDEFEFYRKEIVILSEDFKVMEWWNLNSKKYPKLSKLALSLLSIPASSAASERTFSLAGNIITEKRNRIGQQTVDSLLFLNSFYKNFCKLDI

[3] = tested on: T3, Hermes transposase wild type (Musca domestica); experiment: enzyme reaction in vitro; conditions: 5'-phosphate on SEQ 9 strand; Mg2+ or Mn2+; 23 or 30 C; agarose gel of SEJ and DEJ products; purified recombinant protein
T3 sequence: T2 sequence with E2Q, S233L, M286V, A369R, A503F, A504F

[4] = tested on: T3, Hermes transposase wild type (Musca domestica); experiment: activity assay; conditions: 5'-biotin on SEQ 11 strand; 5'-phosphate on SEQ 12 strand; variant used not explicit, wild type insertion dataset described in p29; 10 mM MgCl2, 100 mM NaCl, MOPS pH 7.5, 30 C; purified recombinant protein; label: biotin

## TCAGAGAACAACAACAAGTGGCTTATTTTGA / TCAAAATAAGCCACTTGTTGTTGTTCTCTG [Pre-cleaved Hermes left end (L-end)]
[1]
  activity on this sequence: active
[2]
  activity on this sequence: active
[3]
  activity on this sequence: active

## ATAAGTAGCAAGTGGCGCATAAGTATCAAAATAAGCCACTTGTTGTTGTTCTCTG / CCAGAGAACAACAACAAGTGGCTTATTTTGATACTTATGCGCCACTTGCTACTTAT [Biotinylated Hermes LE]
[4]
  activity on this sequence: active

— patent US20150284768
